The list shows a part of the results. Further columns of the screen follow, without active or inactive calls. Most of these compounds were active or inconclusive in the main read-out, so they are no random draw. Words in brackets tell the shape of the fitted curve; partial curves, single points and poor fits give uncertain potencies.
Assay: qHTS Assay for Lipid Storage Modulators in Drosophila S3 Cells;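 as to cell number change: cells counted by Cell Tracker Red CMTPX staining in the red channel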
Details: BODIPY lipid droplet fluorescence, 18-24 h; for cell number change: measured here: cell count max response, cells fed with added oleic acid
In short: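 Drosophila S3 cells loaded with oleic acid (400 uM, as added) and compounds at several concentrations; lipid droplets imaged by 488-nm laser-scanning cytometry, 500–530 nm intensity and object ratio to cell channel. Percent activity normalized to 20 uM Triacsin C.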

[1] = measured here: lipid fluorescence (Fed channel) AC50, cells fed with added oleic acid
[2] = measured here: cell number channel AC50, cells fed with added oleic acid

Row | Compound | AC50 [1] | cell number change | AC50 [2]
1 | COc1ccc(-c2csc(N=C(N)N)n2)cc1 | 6.51 µM [rising, single point] | – | –
2 | NC(=O)COC(=O)c1ccccc1Oc1ccccc1 | – | 23.8% | –
3 | Cc1cc(C)c(N2C(=NC(=O)CCCC(=O)O)SC3CS(=O)(=O)CC32)c(C)c1 (configuration not stated) | 2.59 µM [falling, single point] | -12.4% | –
4 | O=C(CN1CCCCCC1)N/N=C/c1ccc2ccccc2c1 | – | 50.9% | 14.6 µM [rising, partial curve, poor fit]
5 | COc1ccc2ccccc2c1/C=N/NC(=O)c1ccc(C)nc1 | 2.06 µM [falling, partial curve] | 11.2% | –
6 | Cc1ccc(NC(=O)c2ccco2)c(NC(=O)C2CCCO2)c1 (configuration not stated) | – | -46.2% | –
7 | O=C(O)CCS(=O)(=O)c1nc(-c2cccs2)cc(C(F)(F)F)n1 | 23.1 µM [falling, single point] | -47.8% | 32.6 µM [falling, single point]
8 | Cc1cc(C)n(S(=O)(=O)c2cccc([N+](=O)[O-])c2)n1 | 29.1 µM [rising, single point] | -12.9% | –
9 | COc1ccc(-c2cc(C(=O)N3CCCC3)no2)cc1OC | – | 1.3% | –
10 | CC(C)[C@H](N)c1cn([C@@H](CO)C(=O)N2CCNCC2)nn1 | 14.6 µM [rising, partial curve] | 9.29% | –
11 | COc1ccc(OCCNS(=O)(=O)c2ccc3oc4ccccc4c3c2)cc1 | – | 6.09% | –
12 | CCn1cc(-c2cc(C(=O)O)c3ccccc3n2)c(C)n1 | 0.411 µM [rising, full curve, poor fit] | -10.6% | –
13 | O=C(CCCN1C(=O)[C@H]2CC=CC[C@H]2C1=O)NCc1nc(-c2ccc(Cl)cc2)no1 | 6.51 µM [rising, single point] | 12.5% | –
14 | CSc1ccccc1C(=O)N1CCCC(CNC(=O)c2ccc(F)cc2)C1 (configuration not stated) | – | -2.45% | –
15 | COc1ccc(OCc2cc(C(=O)N(C)Cc3cc(C)no3)no2)c(Cl)c1 | – | -15% | –
16 | COc1ccc(C2(c3ccc(OC)cc3)NC(=O)N(CC(=O)Nc3ccc(C(=O)N(C)C)cc3)C2=O)cc1 | 29.1 µM [rising, single point] | -1.89% | –
17 | Nc1c(C(=O)c2ccccc2)sc2nsc(SCCN3CCCC3)c12 | 20.6 µM [falling, single point] | 4.18% | –
18 | COc1ccccc1/C=C(/CC(=O)NCc1ccc2c(c1)OCO2)c1nc2ccccc2s1 | 0.0651 µM [rising, full curve, poor fit] | 1.96% | –
19 | Cc1cc(Oc2ccc(=O)n(C)n2)nc(SCC(N)=O)n1 | – | 12.9% | –
20 | O=C(CCC1CCCN(C(=O)CCCc2ccccc2)C1)N1CCN(c2ccccn2)CC1 (configuration not stated) | – | -5.68% | –

Look-ups from the results shown:
CCn1cc(-c2cc(C(=O)O)c3ccccc3n2)c(C)n1 | cell number change: -10.6%
Cc1cc(C)c(N2C(=NC(=O)CCCC(=O)O)SC3CS(=O)(=O)CC32)c(C)c1 (configuration not stated) | cell number change: -12.4%

— PubChem BioAssay AID2685 (National Center for Advancing Translational Sciences (NCATS), 2010)
